Measurements reported in PubChem BioAssay AID1508588 (Peter MacCallum Cancer Centre, 2020)
Test: 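Which gene losses make BRAF-mutant melanoma cells more responsive to vemurafenib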 (primary screen). Cell system: human WM266.4 melanoma cells (BRAF V600 mutant). Reagents: siRNA pool against human genes, 40 nM. Duration: 96 h from transfection to read-out. Treatment: vemurafenib 300 nM (about IC25), added 48 h after transfection, for 48 h; comparison arm got DMSO vehicle only. Measurement: 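Ratios to non-targeting siRNA for cell gain, counted as DAPI nuclei after minus before drug and averaged over two replicates, and for absorbance-read medium lactate per cell; both binned into fold-change classes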. Direction: cell gain with vemurafenib: higher = more cell gain than with non-targeting siRNA; lactate per cell with vemurafenib: higher = more lactate made per cell. Hit rule: 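Enhancement is called by pairing each knock-down's vehicle-arm and drug-arm fold-change classes for viability or glycolysis; which class combinations qualify is not given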. Calls: active = enhances vemurafenib effect; inactive = no enhancement seen.
The whole screen tested about 18,000 reagents; shown is a part drawn at random. 790 of all reagents (4.4%) were called active. 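Calls rest on a combination of fold-change classes in drug and vehicle arms, not all shown here.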

Target gene	cell gain with vemurafenib	lactate per cell with vemurafenib	activity call
MSL2 (GeneID 55167)	0.04	1.64	inactive
COLEC10 (GeneID 10584)	0.74	0.22	active
APOE (GeneID 348)	0.39	1.31	inactive
NACC2 (GeneID 138151)	0.08	0.98	inactive
KCNJ5 (GeneID 3762)	0.64	1.34	inactive
EZR (GeneID 7430)	0.47	0.7	inactive
CLDN14 (GeneID 23562)	0.19	2.91	inactive
MMEL1 (GeneID 79258)	0.22	1.38	inactive
HPN (GeneID 3249)	0.49	2.05	inactive
YTHDC1 (GeneID 91746)	0.4	2.1	inactive
WDR4 (GeneID 10785)	0.52	2.21	inactive
TWSG1 (GeneID 57045)	0.67	0.88	inactive
FGL2 (GeneID 10875)	0.41	1.18	inactive
GBP5 (GeneID 115362)	0.18	1.75	active
PODNL1 (GeneID 79883)	-0.15	2.84	inactive
EEF1E1 (GeneID 9521)	0.73	1.19	inactive
BLTP2 (GeneID 9703)	0.45	0.74	inactive
C16orf82 (GeneID 162083)	0.53	1.12	inactive
SERTAD4 (GeneID 56256)	0.28	1.31	inactive
GLIS2 (GeneID 84662)	0.65	0.85	inactive
IFNA5 (GeneID 3442)	0.63	1.3	inactive
SREBF2 (GeneID 6721)	0.44	0.9	inactive
MASP2 (GeneID 10747)	0.46	0.67	inactive
MASP1 (GeneID 5648)	0.57	1.26	inactive
FCRLB (GeneID 127943)	1.1	1.07	inactive
KEL (GeneID 3792)	0.99	0.67	inactive
MSANTD2 (GeneID 79684)	0.51	1.4	inactive
GPR183 (GeneID 1880)	1.16	0.56	inactive
HOXA5 (GeneID 3202)	0.26	0.36	inactive
AGO4 (GeneID 192670)	0.47	0.4	inactive
MTMR9 (GeneID 66036)	0.63	1.32	inactive
CISD1 (GeneID 55847)	1.04	0.83	inactive
CYBRD1 (GeneID 79901)	0.38	0.98	inactive
SNRNP200 (GeneID 23020)	-0.06	2.02	inactive

No new results follow: 5 of the entries above.
Target gene	cell gain with vemurafenib	lactate per cell with vemurafenib	activity call
IFNA5 (GeneID 3442)	0.63	1.3	inactive
SREBF2 (GeneID 6721)	0.44	0.9	inactive
MASP2 (GeneID 10747)	0.46	0.67	inactive
MASP1 (GeneID 5648)	0.57	1.26	inactive
FCRLB (GeneID 127943)	1.1	1.07	inactive
